No constants are given. Whether binding was seen depends on the method and setting. Some binding calls cover weakened binding; strength is not graded here.

Test [1] deals with T1, Arabidopsis thaliana HAESA ectodomain (residues 20–620) (Arabidopsis thaliana) (UniProt P47735).
T1 sequence (chain, N-glycans (glycoprotein of ~75 kDa)): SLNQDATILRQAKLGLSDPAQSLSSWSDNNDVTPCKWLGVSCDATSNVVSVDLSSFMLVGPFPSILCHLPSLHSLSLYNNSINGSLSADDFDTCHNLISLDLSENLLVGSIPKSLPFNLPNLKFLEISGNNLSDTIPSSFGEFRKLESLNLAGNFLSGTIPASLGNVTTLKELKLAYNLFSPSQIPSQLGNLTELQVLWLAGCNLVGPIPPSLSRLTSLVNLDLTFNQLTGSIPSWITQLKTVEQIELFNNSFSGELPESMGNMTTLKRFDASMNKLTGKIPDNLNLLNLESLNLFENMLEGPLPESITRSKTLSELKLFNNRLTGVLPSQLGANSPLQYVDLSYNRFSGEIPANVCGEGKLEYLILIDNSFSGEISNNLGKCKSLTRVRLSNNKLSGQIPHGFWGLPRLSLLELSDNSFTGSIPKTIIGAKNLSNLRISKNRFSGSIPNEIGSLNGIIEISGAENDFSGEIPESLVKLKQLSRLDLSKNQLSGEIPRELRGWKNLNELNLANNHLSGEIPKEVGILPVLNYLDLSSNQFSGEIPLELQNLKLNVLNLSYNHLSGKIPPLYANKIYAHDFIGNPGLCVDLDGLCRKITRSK
The test can be described thus: ITC; peptide solution (250 μM) injected in 10 μL aliquots into 20 μM HAESA ectodomain in the cell; 25°C; 20 mM citric acid pH 5.0, 100 mM NaCl; both purified. For orientation: Isothermal titration calorimetry measures the heat released or taken up as one component is titrated into another.

For test [2], the target named is Arabidopsis thaliana SERK1 ectodomain (residues 24–213, Asn115→Asp and Asn163→Gln) (Arabidopsis thaliana) (UniProt Q94AG2). The test is described as follows: SEC; Superdex 200 HR 10/30, 20 mM citric acid pH 5, 100 mM NaCl; isolated HAESA ectodomain (5.5 mg/mL) or isolated SERK1 LRR domain (3 mg/mL); both purified.
Test [3] addresses T1, Arabidopsis thaliana HAESA ectodomain (residues 20–620) (Arabidopsis thaliana). The test is described as above.

B1: synthetic PKGV-IDA peptide …-Hyp-SKRHN (peptide)
peptide: YPKGVPIPPSAPSKRHN
modifications: hydroxyproline (Hyp) at Hyp64 (IDA numbering)
As to B1, the binding result in test [1] was “binds weakly”.

B2: Arabidopsis thaliana SERK1 ectodomain (residues 24–213, Asn115→Asp and Asn163→Gln) (domain or fragment, UniProt Q94AG2 24-213)
chain: ASANLEGDALHTLRVTLVDPNNVLQSWDPTLVNPCTWFHVTCNNENSVIRVDLGNAELSGHLVPELGVLKNLQYLELYSNNITGPIPSNLGDLTNLVSLDLYLNSFSGPIPESLGKLSKLRFLRLNNNSLTGSIPMSLTQITTLQVLDLSNNRLSGSVPDNGSFSLFTPISFANNLDLCGPVTSHPCPGS
Turning to B2, the binding entry in test [2] is “no binding (tested: 3 mg/mL)”.

B3: synthetic IDL1 peptide YLVPPSG-Hyp-SMRHN (ITC) (peptide)
peptide: YLVPPSGPSMRHN
modifications: hydroxyproline (Hyp) at the 8th residue of the printed peptide
Consider B3, for which the binding entry in test [1] is “binds weakly”.

B4: Arabidopsis thaliana HAESA ectodomain (residues 20–620) (domain or fragment)
chain: SLNQDATILRQAKLGLSDPAQSLSSWSDNNDVTPCKWLGVSCDATSNVVSVDLSSFMLVGPFPSILCHLPSLHSLSLYNNSINGSLSADDFDTCHNLISLDLSENLLVGSIPKSLPFNLPNLKFLEISGNNLSDTIPSSFGEFRKLESLNLAGNFLSGTIPASLGNVTTLKELKLAYNLFSPSQIPSQLGNLTELQVLWLAGCNLVGPIPPSLSRLTSLVNLDLTFNQLTGSIPSWITQLKTVEQIELFNNSFSGELPESMGNMTTLKRFDASMNKLTGKIPDNLNLLNLESLNLFENMLEGPLPESITRSKTLSELKLFNNRLTGVLPSQLGANSPLQYVDLSYNRFSGEIPANVCGEGKLEYLILIDNSFSGEISNNLGKCKSLTRVRLSNNKLSGQIPHGFWGLPRLSLLELSDNSFTGSIPKTIIGAKNLSNLRISKNRFSGSIPNEIGSLNGIIEISGAENDFSGEIPESLVKLKQLSRLDLSKNQLSGEIPRELRGWKNLNELNLANNHLSGEIPKEVGILPVLNYLDLSSNQFSGEIPLELQNLKLNVLNLSYNHLSGKIPPLYANKIYAHDFIGNPGLCVDLDGLCRKITRSK
modifications: N-glycans (glycoprotein of ~75 kDa)
B4: the binding result in test [3] is “no binding (tested: 5.5 mg/mL)”.

B5: synthetic IDA-SFVN peptide YPIPPSA-Hyp-… (peptide)
peptide: YPIPPSAPSKRHNSFVN
modifications: hydroxyproline (Hyp) at Hyp64 (IDA numbering)
Turning to B5, the binding entry in test [1] was “no binding (tested: 250 μM peptide into 20 μM HAESA)”.

The record behind these values is PMC4848090, “Mechanistic insight into a peptide hormone signaling complex mediating floral organ abscission” (eLife, 2016).
